According to the supplement of paper PMC8728848:
The other results are listed elsewhere or left out.

What was measured:
Test in all cases: glycan array binding signal (z-score within array); higher = stronger binding
Details in all cases: glycan notation: IUPAC condensed, linker removed
[1] = target: Fuc(a1-2)[GalNAc(a1-3)]Gal(b1-3)GlcNAc(b1-6)GalNAc
How it was run: (§1)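 From the Consortium for Functional Glycomics database, 3228 arrays were curated, keeping only those whose protein sequence was available. Binding is given as a within-array Z-score averaged across arrays sharing a protein sequence and across linkers. Negative Z-scores can be read as non-binding.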

[2] = target: Fuc(a1-2)[GalNAc(a1-3)]Gal(b1-4)Glc
How it was run: as §1

[3] = target: Fuc(a1-2)[GalNAc(a1-3)]Gal(b1-4)GlcNAc
How it was run: as §1

[4] = target: Fuc(a1-2)[GalNAc(a1-3)]Gal(b1-4)GlcNAc(b1-2)Man
How it was run: as §1

[5] = target: Fuc(a1-2)[GalNAc(a1-3)]Gal(b1-4)GlcNAc(b1-2)Man(a1-3)[Fuc(a1-2)[GalNAc(a1-3)]Gal(b1-4)GlcNAc(b1-2)Man(a1-6)]Man(b1-4)GlcNAc(b1-4)GlcNAc
How it was run: as §1

[6] = target: Fuc(a1-2)[GalNAc(a1-3)]Gal(b1-4)GlcNAc(b1-2)Man(a1-3)[Fuc(a1-2)[GalNAc(a1-3)]Gal(b1-4)GlcNAc(b1-2)Man(a1-6)]Man(b1-4)GlcNAc(b1-4)[Fuc(a1-6)]GlcNAc
How it was run: as §1

[7] = target: Fuc(a1-2)[GalNAc(a1-3)]Gal(b1-4)GlcNAc(b1-3)Gal(b1-4)GlcNAc
How it was run: as §1

[8] = target: Fuc(a1-2)[GalNAc(a1-3)]Gal(b1-4)GlcNAc(b1-3)Gal(b1-4)GlcNAc(b1-3)Gal(b1-4)GlcNAc
How it was run: as §1

[9] = target: Fuc(a1-2)[GalNAc(a1-3)]Gal(b1-4)GlcNAc(b1-3)GalNAc
How it was run: as §1

[10] = target: Fuc(a1-2)[GalNAc(a1-3)]Gal(b1-4)GlcNAc(b1-3)[Fuc(a1-2)[GalNAc(a1-3)]Gal(b1-4)GlcNAc(b1-6)]GalNAc
How it was run: as §1

[11] = target: Fuc(a1-2)[GalNAc(a1-3)]Gal(b1-4)GlcNAc(b1-6)GalNAc
How it was run: as §1

[12] = target: Fuc(a1-2)[GalNAc(a1-3)]Gal(b1-4)[Fuc(a1-3)]GlcNAc
How it was run: as §1

[13] = target: Fuc(a1-2)[GalNAc(a1-3)]Gal(b1-4)[Fuc(a1-3)]GlcNAc(b1-3)GalNAc
How it was run: as §1

[14] = target: Fuc(a1-2)[GalNAc(a1-4)]Gal(b1-4)GlcNAc
How it was run: as §1

[15] = target: Fuc(a1-2)[GalNAc(b1-3)]Gal
How it was run: as §1

Fuc(a1-3)GlcNAc = target: Fuc(a1-3)GlcNAc
How it was run: as §1

[16] = target: Fuc(a1-3)[Gal(b1-4)]Glc6S
How it was run: as §1

[17] = target: Fuc(a1-3)[Gal(b1-4)]GlcNAc
How it was run: as §1

[18] = target: Fuc(a1-3)[Gal(b1-4)]GlcNAc(b1-2)Man
How it was run: as §1

[19] = target: Fuc(a1-3)[Gal(b1-4)]GlcNAc(b1-2)Man(a1-3)[Fuc(a1-3)[Gal(b1-4)]GlcNAc(b1-2)Man(a1-6)]Man(b1-4)GlcNAc(b1-4)GlcNAc
How it was run: as §1

[20] = target: Fuc(a1-3)[Gal(b1-4)]GlcNAc(b1-2)Man(a1-3)[Fuc(a1-3)[Gal(b1-4)]GlcNAc(b1-2)Man(a1-6)]Man(b1-4)GlcNAc(b1-4)[Fuc(a1-6)]GlcNAc
How it was run: as §1

[21] = target: Fuc(a1-3)[Gal(b1-4)]GlcNAc(b1-3)Gal(b1-3)[Fuc(a1-4)]GlcNAc
How it was run: as §1

[22] = target: Fuc(a1-3)[Gal(b1-4)]GlcNAc(b1-3)Gal(b1-4)[Fuc(a1-3)]GlcNAc
How it was run: as §1

[23] = target: Fuc(a1-3)[Gal(b1-4)]GlcNAc(b1-3)Gal(b1-4)[Fuc(a1-3)]GlcNAc(b1-3)Gal(b1-4)[Fuc(a1-3)]GlcNAc
How it was run: as §1

[24] = target: Fuc(a1-3)[Gal(b1-4)]GlcNAc(b1-3)GalNAc
How it was run: as §1

[25] = target: Fuc(a1-3)[Gal(b1-4)]GlcNAc(b1-6)GalNAc
How it was run: as §1

[26] = target: Fuc(a1-3)[Gal(b1-4)]GlcNAc(b1-6)[Gal(b1-3)GlcNAc(b1-3)]Gal(b1-4)Glc
How it was run: as §1

[27] = target: Fuc(a1-3)[Gal(b1-4)]GlcNAc6S
How it was run: as §1

[28] = target: Fuc(a1-3)[Gal3S(b1-4)]Glc
How it was run: as §1

[29] = target: Fuc(a1-3)[Gal3S(b1-4)]GlcNAc
How it was run: as §1

[30] = target: Fuc(a1-3)[Gal3S(b1-4)]GlcNAc6S
How it was run: as §1

[31] = target: Fuc(a1-3)[GalNAc(b1-4)]GlcNAc
How it was run: as §1

[32] = target: Fuc(a1-3)[GalNAc(b1-4)]GlcNAc6S
How it was run: as §1

Fuc(a1-4)GlcNAc = target: Fuc(a1-4)GlcNAc
How it was run: as §1

Fuc(b1-3)GlcNAc = target: Fuc(b1-3)GlcNAc
How it was run: as §1

Gal(a1-2)Gal = target: Gal(a1-2)Gal
How it was run: as §1

Gal(a1-3)Gal = target: Gal(a1-3)Gal
How it was run: as §1

B1: FimA (Actinomyces oris) (protein)
chain: MHHHHHHSSGVDLGTENLYFQSNAETPNYGNIKTDATGSLVIHKHLTGGGKDIGTPTGTAQNADDKGPAVEGVVFTAYPITDINLKDPAGWDTISNLSRTGVPDSACANPAAPTLGAHQFGTPKVSPATTKEGLATITEMPVQAYLVCETTTPGDIVQKAKPFVVTIPHPNTAAGADGQWIYDVNVYPKNEAIDVDKTIQAQKLNGYGVGSLIKFPVESTAPTLDAKSFYKYFQLKDTLDERLSEVTATDVSLEGTPLQPTDYKVETKQQTVTVTFTAEGLKKIKAAPGKKVSAVFQGKVTKAGNGAITNRAQVISDTLYAEQPPTPETPPTDPENPPTSDEVISRWGDLSIKKVDTHQQGQTKAGLQGAQFQLYKAKNAYANTCSNEKEGAPIAINGQTTLTTDAQGAIDIKGLFISDSIDGADRDNQVNAMERCYVLVETKAPAGYVLPAGNGAATPVKVKAGEETTDNVTVENTKQSVPGLPLTG
Question: B1 was tested. Which “glycan array binding signal (z-score)” value [1] did it give?
Answer: Its value is -0.203.

Question: And the “glycan array binding signal (z-score)” value [2]?
Answer: Its value is -0.796.

Question: And the “glycan array binding signal (z-score)” value [3]?
Answer: Its value is -0.742.

Question: What about the “glycan array binding signal (z-score)” value [4] of the same binder?
Answer: The value was -0.624.

Question: And the “glycan array binding signal (z-score)” value [5]?
Answer: Its value is 2.33.

Question: What about the “glycan array binding signal (z-score)” value [6] of the same binder?
Answer: Its value is -0.572.

Question: And the “glycan array binding signal (z-score)” value [7]?
Answer: Its value is -0.04.

Question: And the “glycan array binding signal (z-score)” value [8]?
Answer: Its value is -0.194.

Question: What about the “glycan array binding signal (z-score)” value [9] of the same binder?
Answer: Its value is -0.408.

Question: What about the “glycan array binding signal (z-score)” value [10] of the same binder?
Answer: Its value is -0.54.

Question: What about the “glycan array binding signal (z-score)” value [11] of the same binder?
Answer: The value was -0.298.

Question: What about the “glycan array binding signal (z-score)” value [12] of the same binder?
Answer: The value was -1.02.

Question: What about the “glycan array binding signal (z-score)” value [13] of the same binder?
Answer: The value was -0.449.

Question: What about the “glycan array binding signal (z-score)” value [14] of the same binder?
Answer: Its value is 1.81.

Question: And the “glycan array binding signal (z-score)” value [15]?
Answer: The value was -0.194.

Question: What about the “glycan array binding signal (z-score)” value (Fuc(a1-3)GlcNAc) of the same binder?
Answer: The value was -1.01.

Question: And the “glycan array binding signal (z-score)” value [16]?
Answer: Its value is 1.02.

Question: What about the “glycan array binding signal (z-score)” value [17] of the same binder?
Answer: The value was -0.412.

Question: And the “glycan array binding signal (z-score)” value [18]?
Answer: Its value is -0.211.

Question: What about the “glycan array binding signal (z-score)” value [19] of the same binder?
Answer: The value was -0.371.

Question: And the “glycan array binding signal (z-score)” value [20]?
Answer: The value was -0.345.

Question: What about the “glycan array binding signal (z-score)” value [21] of the same binder?
Answer: The value was -0.38.

Question: What about the “glycan array binding signal (z-score)” value [22] of the same binder?
Answer: Its value is 0.299.

Question: And the “glycan array binding signal (z-score)” value [23]?
Answer: The value was 1.47.

Question: And the “glycan array binding signal (z-score)” value [24]?
Answer: Its value is -0.195.

Question: And the “glycan array binding signal (z-score)” value [25]?
Answer: Its value is -0.64.

Question: And the “glycan array binding signal (z-score)” value [26]?
Answer: The value was -0.539.

Question: And the “glycan array binding signal (z-score)” value [27]?
Answer: The value was 0.324.

Question: What about the “glycan array binding signal (z-score)” value [28] of the same binder?
Answer: Its value is -0.294.

Question: What about the “glycan array binding signal (z-score)” value [29] of the same binder?
Answer: The value was -0.551.

Question: What about the “glycan array binding signal (z-score)” value [30] of the same binder?
Answer: The value was -0.482.

Question: And the “glycan array binding signal (z-score)” value [31]?
Answer: The value was 3.5.

Question: What about the “glycan array binding signal (z-score)” value [32] of the same binder?
Answer: The value was -0.45.

Question: What about the “glycan array binding signal (z-score)” value (Fuc(a1-4)GlcNAc) of the same binder?
Answer: The value was 0.328.

Question: What about the “glycan array binding signal (z-score)” value (Fuc(b1-3)GlcNAc) of the same binder?
Answer: The value was 0.27.

Question: And the “glycan array binding signal (z-score)” value (Gal(a1-2)Gal)?
Answer: Its value is -0.12.

Question: And the “glycan array binding signal (z-score)” value (Gal(a1-3)Gal)?
Answer: The value was -0.183.
